± gives the standard deviation. The list shows a part of the results. Many entries were measured with a wide error.
Tested on: EfPiwi piRISC loaded with L1MC piRNA (26 nt)
Assay: pre-steady-state target cleavage rate (min^-1); guide: L1MC piRNA 5'p-UAACUAAAUACUAUGCAAGCUGUAGG; MIWI and MILI are mouse PIWI proteins and EfPiwi is from a freshwater sponge; tags in brackets are library labels; higher = faster piRNA-guided slicing of the target
Conditions: auxiliary factor: 500 nM Ephydatia muelleri Gtsf1
In short: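 Reactions were run for 0–8 or 0–960 min at 33 °C in HEPES–potassium acetate buffer, combining 1 nM active affinity-purified piRISC with one synthetic guide, […] transcribed, DNA-blocked target RNA library and, in some cases, 500 nM GTSF1 partner protein. Sequencing of uncleaved targets followed, with normalisation to depth and to weakly complementary targets. Three trials were pooled, k3 was capped at 0.0001 min^-1, and the pre-steady-state cleavage rate was taken from a burst-and-steady-state fit.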

How did the “pre-steady-state target cleavage rate” value turn out when UCCUGGAUCAGCUGCAUAGUAUUUAGUUA was run?
Its value is 0.0152 ± 0.0053.

With UCCUGCUACAGGUUGGAUAGUAUUUAGUUA as the sequence, how does the “pre-steady-state target cleavage rate” value read?
Its value is 0.00793 ± 0.0027.

With UCCUCGUACAGCUUGCAUAGUAUUUAGUAA as the sequence, how does the “pre-steady-state target cleavage rate” value read?
The value was 0.00794 ± 0.0029.

Which “pre-steady-state target cleavage rate” value does the source give for UCCUGGAACAGCUUUGCAUAGUAUUUAGUUA here?
Its value is 0.0309 ± 0.0082.

With UCCUGGAUCAGCUAGCAUAGUUUUUAGUUA as the sequence, how does the “pre-steady-state target cleavage rate” value read?
Its value is 0.00174 ± 0.0036.

How did the “pre-steady-state target cleavage rate” value turn out when UCCUGGAUCAGCUCUGCAUAGUAUUUAGUUA was run?
Its value is 0.101 ± 0.023.

How did the “pre-steady-state target cleavage rate” value turn out when UCCUCCUACUCGUUGCAUAGUAUUUAGUAA was run?
Its value is 0.00477 ± 0.0029.

How did the “pre-steady-state target cleavage rate” value turn out when UCCUGGAUCUGCUUGCAUAGUUUUUAGUUA was run?
Its value is 0.00787 ± 0.0041.

With UCCUGGUUCAGCUUGCAUAGUAAUUAGUUA as the sequence, how does the “pre-steady-state target cleavage rate” value read?
The value was 0.0107 ± 0.0037.

Which “pre-steady-state target cleavage rate” value does the source give for “UCCUGGAUGUGCUUGCAUAGUAUUUAGUUU [g2:g20:cont:t1U]” here?
The value was 0.052 ± 0.017.

For UCCUCCUACAGCUUGCAUAGUAUAAUGUUA, which “pre-steady-state target cleavage rate” value is on record?
Its value is 0.00388 ± 0.0022.

For UCCUGGAACAUCUUGCAUAGUAUUUAGUUA, which “pre-steady-state target cleavage rate” value is on record?
The value was 0.0653 ± 0.016.

UCCUGGAUCAGCAUGCAUAGUAUUUAGUAA was tested. Which “pre-steady-state target cleavage rate” value did it give?
The value was 0.00497 ± 0.0029.

For UCCUGGAUGAGCCUUGCAUAGUAUUUAGUUA, which “pre-steady-state target cleavage rate” value is on record?
The value was 0.00885 ± 0.0032.

With UCCUGGAUGUCCUUGCAUAGUUUUUAGUUA as the sequence, how does the “pre-steady-state target cleavage rate” value read?
The value was 0.00455 ± 0.003.

Which “pre-steady-state target cleavage rate” value does the source give for UCCUGGAACAGCUUUCAUAGUAUUUAGUUA here?
Its value is 0.00631 ± 0.0025.

With UCCUGGAUGAGCUCGCAUAGUAUUUAGUUA as the sequence, how does the “pre-steady-state target cleavage rate” value read?
Its value is 0.0143 ± 0.0042.

Which “pre-steady-state target cleavage rate” value does the source give for UCCUGGAUGAGCUUGCUUAGUAUUUUGUUA here?
Its value is 0.00206 ± 0.0039.

How did the “pre-steady-state target cleavage rate” value turn out when UCCUGGAUCAGGUUGCAAAGUAUUUAGUUA was run?
Its value is 0.0172 ± 0.0054.

For UCCUGCUAGCAGCUUGCAUAGUAUUUAGUUA, which “pre-steady-state target cleavage rate” value is on record?
Its value is 0.0598 ± 0.016.

Which “pre-steady-state target cleavage rate” value does the source give for UCCUGGAUCAGCUGUGCAUAGUAUUUAGUUA here?
The value was 0.0791 ± 0.016.

Which “pre-steady-state target cleavage rate” value does the source give for UCCUGGAUGUCGAACCAUAGUAUAUAGUUA here?
Its value is 0.00012 ± 0.019.

Which “pre-steady-state target cleavage rate” value does the source give for UCCUGGUACAGCUUGCAUAGUAUUUGAGUUA here?
The value was 0.00306 ± 0.0023.

UCCUGGUACACCUUGCAUAGUUUUUAGUUA was tested. Which “pre-steady-state target cleavage rate” value did it give?
The value was 0.00108 ± 0.0083.
